Source: patent publication EP0999856B1 (Bristol-Myers Squibb Pharma Company, priority 1996, dated 1998)
The star is where a group is joined. Dde = CC(=C1C(=O)CC(C)(C)CC1=O)*; Boc = CC(C)(C)OC(=O)*

Columns and labels:
[1] = general procedure: Fmoc solid-phase peptide synthesis; Fmoc-Tyr(OtBu)-Wang Resin; Wang Resin (0.60 mmol/g); HMPB-BHA resin (0.86 mmol/g); HBTU/HOBT/DIEA; HATU/DIEA; conditions: conjugation step
[2] = general procedure: Fmoc solid-phase peptide synthesis; HMPB-BHA resin; HBTU/HOBT/DIEA; HATU/DIEA; conditions: whole synthesis

Row | Substance | conjugation yield [1] [%] | isolated yield [2] [%]
1 | 3-(6-(3-(N-(3-((6-((1-Aza-2-(2-sulfophenyl)vinyl)amino)(3-pyridyl))-Gly-Lys-Lys-Lys)aminopropyl)carbamoyl)propoxy)-2-(5-(5-oxo-1-prop-2-enyl(2-6,7,8-trihydronaphthyloxy))pentyloxy)phenyl)propanoic Acid | 35 | –
2 | Boc-GK(Dde)K(Dde)K(Dde)-OH | – | 35
